# PubChem BioAssay AID1259254 | NCATS | 2017
# Test: 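Finding genes that stop cells copying their DNA twice in one cycle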 (primary screen)
# System: human HCT116 colorectal cancer cells
# Reagents: single siRNA against human genes
# Time to read-out: 3 days
# Detection: 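Nuclei stained with Hoechst and imaged; cell-cycle phase assigned by DNA content; G2 share scaled per plate, non-targeting siRNA 0%, GMNN siRNA 100%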
# Reading the numbers: G2 robust z-score and G2 cells, % of GMNN control: higher = more G2 cells, more excess DNA replication; raw share of cells in G2: higher = larger share of cells with G2 DNA content
# Rule for the call: 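Active siRNAs have a G2 robust z of 5 or more median absolute deviations over the median, which in these data means about 38% or higher of GMNN control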
# The deposit covers about 59,000 reagents; shown is a part drawn at random. About 1,550 of all reagents (2.6%) count as active. 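G2 share is only a proxy for re-replication; each gene was hit by three separate siRNAs, and active genes were retested.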 Raw values are not corrected between plates. Reagent sequences are not shown. Not stated in the record: the amount of reagent.
gene,PubChem SID,G2 robust z-score,"G2 cells, % of GMNN control",raw share of cells in G2 (%),activity call
CDK12,SID160741314,-0.858,-3.07,4.63,inactive
CDK12,SID160741315,-0.395,0.187,5.26,inactive
CDK12,SID160741316,-0.622,-1.41,3.23,inactive
TMEM114,SID160724998,-0.0466,2.64,4.06,inactive
TMEM114,SID160732953,0.271,4.88,4.75,inactive
TMEM114,SID160763088,3.43,27.1,13.5,inactive
GTF2F2,SID160774695,-0.714,-2.06,3.45,inactive
GTF2F2,SID160774696,-0.0928,2.31,6.56,inactive
GTF2F2,SID160774697,-0.905,-3.4,3.81,inactive
ACP1,SID160731421,0.316,5.19,5.06,inactive
ACP1,SID160777776,-0.155,1.87,5.4,inactive
ACP1,SID160777787,-0.473,-0.361,4.19,inactive
C22orf39,SID160756827,0.483,6.37,6.58,inactive
C22orf39,SID160756828,2.1,17.7,8.72,inactive
C22orf39,SID160756829,-0.491,-0.485,2.4,inactive
ZNHIT1,SID160728496,-0.994,-4.02,2.19,inactive
ZNHIT1,SID160728497,-0.829,-2.87,2.14,inactive
ZNHIT1,SID160730440,2.59,21.2,15.4,inactive
ARHGAP17,SID160742977,-1.13,-5,4.24,inactive
ARHGAP17,SID160742978,0.925,9.47,7.83,inactive
ARHGAP17,SID160742979,1.96,16.8,11.3,inactive
ADH7,SID160714576,-0.911,-3.44,3.85,inactive
ADH7,SID160714585,-0.0565,2.57,4.95,inactive
ADH7,SID160714596,-0.857,-3.06,3.68,inactive
OR5I1,SID160729245,0.976,9.83,8.84,inactive
OR5I1,SID160729246,2.84,23,13.6,inactive
OR5I1,SID160729247,-0.189,1.64,3.79,inactive
OTUD6A,SID160732497,-0.5,-0.55,2.38,inactive
OTUD6A,SID160757710,-0.776,-2.49,3.24,inactive
OTUD6A,SID160757711,-0.522,-0.706,2.88,inactive
CORO6,SID160752996,-0.915,-3.47,2.61,inactive
CORO6,SID160752997,1.63,14.4,7.53,inactive
CORO6,SID160752998,0.62,7.33,5.25,inactive
APIP,SID160739981,0.0167,3.08,4.98,inactive
APIP,SID160739983,-0.858,-3.07,4.56,inactive
APIP,SID160739984,-1.11,-4.87,2.44,inactive
RABEPK,SID160727578,-0.651,-1.61,4.6,inactive
RABEPK,SID160727584,0.451,6.14,6.51,inactive
RABEPK,SID160732268,0.102,3.68,4.75,inactive
NKAIN2,SID160759413,-0.183,1.68,4.2,inactive
NKAIN2,SID160759414,-0.224,1.39,3.43,inactive
NKAIN2,SID160759416,-0.0729,2.45,3.54,inactive
GNAI3,SID160771916,0.261,4.8,7.09,inactive
GNAI3,SID160771925,-0.301,0.851,3.96,inactive
GNAI3,SID160771933,0.16,4.09,6.72,inactive
CCDC162P,SID160761632,0.172,4.18,5.09,inactive
CCDC162P,SID160761633,0.439,6.06,5.2,inactive
CCDC162P,SID160761634,-0.785,-2.55,2.38,inactive
CCDC162P,SID160761635,-0.58,-1.11,3.17,inactive
CCDC162P,SID160761636,-0.357,0.456,3.29,inactive
CCDC162P,SID160761637,-0.229,1.35,3.63,inactive
TBX3,SID160717787,-1.19,-5.38,3.13,inactive
TBX3,SID160717788,2.61,21.3,12.8,inactive
TBX3,SID160717789,-0.724,-2.13,3.44,inactive
ALDH1L2,SID160730669,-0.671,-1.75,3.96,inactive
ALDH1L2,SID160759780,0.476,6.31,8.97,inactive
ALDH1L2,SID160759781,-0.531,-0.77,4.42,inactive
FLNC,SID160766518,-0.0395,2.69,6.21,inactive
FLNC,SID160766529,1.14,11,9.45,inactive
FLNC,SID160766540,2.56,21,11.1,inactive
LRRC15,SID160757078,5.7,43.1,20.5,active
LRRC15,SID160757080,4.36,33.7,22,inactive
LRRC15,SID160757081,0.575,7.01,7.65,inactive
DUSP12,SID160730324,-0.691,-1.89,4.18,inactive
DUSP12,SID160730325,-0.587,-1.16,3.95,inactive
DUSP12,SID160730326,0.433,6.01,5.31,inactive
PATL1,SID160761454,1.04,10.3,7.3,inactive
PATL1,SID160761455,1.54,13.8,7.86,inactive
PATL1,SID160761456,1.03,10.2,6.45,inactive
CCDC61,SID160772756,-0.55,-0.903,3.74,inactive
CCDC61,SID160772757,-0.246,1.24,3.64,inactive
CCDC61,SID160772758,-0.524,-0.721,2.91,inactive
ATPAF2,SID160735187,-0.195,1.6,3.43,inactive
ATPAF2,SID160754044,4.59,35.2,19,inactive
ATPAF2,SID160754045,1.99,16.9,8.31,inactive
OR51A7,SID160755739,1.24,11.7,8.78,inactive
OR51A7,SID160755740,-0.241,1.27,3.71,inactive
OR51A7,SID160755741,0.743,8.2,4.21,inactive
SCNM1,SID160748464,-0.986,-3.97,2.85,inactive
SCNM1,SID160748466,1.24,11.7,9.84,inactive
SCNM1,SID160748467,-0.58,-1.11,2.4,inactive
TFCP2,SID160717944,0.635,7.43,6.41,inactive
TFCP2,SID160717945,-0.202,1.55,5.57,inactive
TFCP2,SID160717946,0.572,6.99,5.65,inactive
TIPE2,SID160749025,1.26,11.9,9.74,inactive
TIPE2,SID160749026,-0.647,-1.58,3.9,inactive
TIPE2,SID160749027,-0.301,0.847,2.92,inactive
